Results on 42 sequences are retold here after publication PMC7819943, “Rice protein-binding microarrays: a tool to detect cis-acting elements near promoter regions in rice”.

The other results are listed elsewhere or left out.

The target of the test is T1, OsSMF1 (Oryza sativa, UniProt Q6ZLB0 1-436).
T1 sequence: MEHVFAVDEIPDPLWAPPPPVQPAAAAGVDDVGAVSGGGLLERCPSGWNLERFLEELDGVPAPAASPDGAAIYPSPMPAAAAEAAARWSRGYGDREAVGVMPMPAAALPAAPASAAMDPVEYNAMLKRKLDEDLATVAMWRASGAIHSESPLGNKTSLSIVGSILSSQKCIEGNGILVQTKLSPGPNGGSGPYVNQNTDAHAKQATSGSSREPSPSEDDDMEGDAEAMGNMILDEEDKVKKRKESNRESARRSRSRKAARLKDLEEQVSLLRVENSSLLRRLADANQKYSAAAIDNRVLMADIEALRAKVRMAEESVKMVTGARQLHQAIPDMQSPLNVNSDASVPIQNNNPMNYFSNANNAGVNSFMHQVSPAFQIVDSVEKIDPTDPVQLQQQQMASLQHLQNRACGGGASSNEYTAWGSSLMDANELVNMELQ
In words: protein-binding microarray (RPBM); PBS, 2% BSA, 51.3 ng/ul salmon testes DNA, 50 uM zinc acetate, 200 nM TF, 25 C, 1 h; high values mean tight binding. Particulars: protein: recombinant; tags: N-terminal polyhistidine and DsRed monomer fusion (pET32a); chain copies: 2; label: CyDye5-dUTP incorporated in the synthesized complementary strand; 3' TTTTT single-stranded linker to array surface; dsDNA, one strand shown. An outline of the steps: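 Polyhistidine-tagged DsRed fusions of transcription factors, joined at the N-terminus, were expressed in E. coli BL21-CodonPlus and isolated on Ni–NTA. They were incubated at 200 nM for 1 h at 25 °C on a custom Agilent array, double-stranded and BSA-blocked, in PBS with 2% BSA, salmon testes DNA and 50 µM zinc acetate. The binding signal is per-feature fluorescence intensity (arbitrary units) read on an Axon 4000B scanner after washing.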
On to “GGACTCTGGGTAGAGGCAGAGCAGTGCACCACGTGTACGCCGGAGTCACCTAGTGCAG”, for which the binding signal was 4280 fluorescence intensity (a.u.).

For “CCTAAAGTGGAGAGGCCAGGTCATTCCTCTCGAGCGACGGCGGAGTCACCTAGTGCAG”, the binding signal was 3880 fluorescence intensity (a.u.).

For “CGGCCACCAACCGCGGGCCCACCCGTCAGTGACGGTGGGTCGGAGTCACCTAGTGCAG”, the binding signal is 3630 fluorescence intensity (a.u.).

As for “CCCTCAGTGCTCTCATTGACTCATCCAACGGCTGAAATGCCGGAGTCACCTAGTGCAG”, the binding signal is 4210 fluorescence intensity (a.u.).

Consider “GAAAGATATCCAGTGAGGAGATCCAAGCACGAGAGCTAATCGGAGTCACCTAGTGCAG”, for which the binding signal is 3280 fluorescence intensity (a.u.).

Consider “TCTGGGTTAATATGTTGCTAGATGCTAATATTCTGGGTTGCGGAGTCACCTAGTGCAG”, for which the binding signal is 3320 fluorescence intensity (a.u.).

Consider “TGTAGAGAACGGCACGTGGCGACATGACCGTCGATCATGTCGGAGTCACCTAGTGCAG”, for which the binding signal was 7000 fluorescence intensity (a.u.).

For the sequence “TTGAGACTGACATCAGAAAACCGCGGCGAGCTGGCGACTGCGGAGTCACCTAGTGCAG”, the binding signal is 25800 fluorescence intensity (a.u.).

On to “GTGCGTCGCTGCTGCGGACGCGGTCGCTGACACTGTGCTTCGGAGTCACCTAGTGCAG”, for which the binding signal is 3700 fluorescence intensity (a.u.).

With “AGCATGCTTGCATTTATGGTGTACCATGGTCAGCAAGGAACGGAGTCACCTAGTGCAG”, the binding signal was 3910 fluorescence intensity (a.u.).

“CTGAAGAATTTGGATCCAACGTCCCAGATGCGCGCGTGTCCGGAGTCACCTAGTGCAG”: the binding signal is 4070 fluorescence intensity (a.u.).

Regarding “AAGAAAATGAAGAGAGATGTGGGGCCCACATCACTCTCTCCGGAGTCACCTAGTGCAG”, the binding signal is 4320 fluorescence intensity (a.u.).

In the case of “CACCGGGCGCCTCTTCCCTGTGGTAGCAGTCGCCGCCGCCCGGAGTCACCTAGTGCAG”, the binding signal was 6170 fluorescence intensity (a.u.).

As to “GTGTGGTTTTGCTGATGTGGCGCTGACGTGGCGATATTGACGGAGTCACCTAGTGCAG”, the binding signal was 48500 fluorescence intensity (a.u.).

Take “TCACTCTTTAAACACGTAAGTTAAAATTCAACTTTTACAGCGGAGTCACCTAGTGCAG”: the binding signal was 3870 fluorescence intensity (a.u.).

As to “CGCCGGCGCTAGGCGAATCGCAATGATGACGGCAAGGAGGCGGAGTCACCTAGTGCAG”, the binding signal is 3300 fluorescence intensity (a.u.).

As for “GGGAGTAACTTAAGTAATTTATCAAGAAGGTAGTAGCTACCGGAGTCACCTAGTGCAG”, the binding signal is 6490 fluorescence intensity (a.u.).

For “CATGGGGCACGTGCCACGCAAGGACTTCGCCCACACCATGCGGAGTCACCTAGTGCAG”, the binding signal is 9510 fluorescence intensity (a.u.).

Consider “CTCGATCCAGATCGAACGGCCGCCCCGTCACCGCGACCGCCGGAGTCACCTAGTGCAG”, for which the binding signal was 4930 fluorescence intensity (a.u.).

As to “TCATCTGGTACAAAATATATAGGACATCAATCATGGGGAACGGAGTCACCTAGTGCAG”, the binding signal was 26200 fluorescence intensity (a.u.).

As for “AGGTATGGGCCGTCCCATCAGAAGGTCATTCGGACGGCAGCGGAGTCACCTAGTGCAG”, the binding signal is 3360 fluorescence intensity (a.u.).

For the sequence “CAAGCGTTGCATCAGTGGGTGCACGCGCGTGGCAGGGGTCCGGAGTCACCTAGTGCAG”, the binding signal was 4900 fluorescence intensity (a.u.).

Turning to “TTTGCAACCCTCATCGTTTCTCTTCGTCAGATACTCAGATCGGAGTCACCTAGTGCAG”, the binding signal is 3570 fluorescence intensity (a.u.).

Take “ATATAGGGGTTGGTCTTCCACGTCAAATTTGGGGTAGATACGGAGTCACCTAGTGCAG”: the binding signal was 5460 fluorescence intensity (a.u.).

“TGTAGATGATTTTGATCTTGATTTTGCACGTATGCATAACCGGAGTCACCTAGTGCAG”: the binding signal is 4800 fluorescence intensity (a.u.).

On to “TACTCGACGATGACCACGCGGCGTCCCTCCCGGACGACGTCGGAGTCACCTAGTGCAG”, for which the binding signal is 3560 fluorescence intensity (a.u.).

Regarding “CTCTTCTCTTGGTTTGGGGTGTCACGACTCACGACCTGCCCGGAGTCACCTAGTGCAG”, the binding signal is 3350 fluorescence intensity (a.u.).

As for “TTATCTAGCGTCGCTGCTGTGAGCCGGCCGTGATGTCATGCGGAGTCACCTAGTGCAG”, the binding signal is 9110 fluorescence intensity (a.u.).

Turning to “ATTGATACTGAGACTGACTCGGTTTTCGTCAAGGTGTTCTCGGAGTCACCTAGTGCAG”, the binding signal was 3380 fluorescence intensity (a.u.).

Regarding “TGCAGGAGGATGGCCCGCCACGCGGTGTTTTGGGCCGTTCCGGAGTCACCTAGTGCAG”, the binding signal was 3270 fluorescence intensity (a.u.).

Take “TAGTACTATGAATCTGTATAGAAGTAGGTAGGATGTATCACGGAGTCACCTAGTGCAG”: the binding signal was 21200 fluorescence intensity (a.u.).

For “CACGACACGGCTCCTGGACCTCCTCGCCCACGTGAACCCGCGGAGTCACCTAGTGCAG”, the binding signal was 30100 fluorescence intensity (a.u.).

“GTTTGTTGTCCTATTAAAATTTGGTAATGCCAAAATTTAGCGGAGTCACCTAGTGCAG”: the binding signal is 9940 fluorescence intensity (a.u.).

On to “TCCCTCCCTCCGCCGCGCCACGCCCACCCACGCATCCATCCGGAGTCACCTAGTGCAG”, for which the binding signal was 4110 fluorescence intensity (a.u.).

Consider “TGCGAACTCGCTACGTGGAATACTTGGGCCCTTCCCTTCCCGGAGTCACCTAGTGCAG”, for which the binding signal is 5370 fluorescence intensity (a.u.).

As to “AGGCTGGATCTAGTGGGTTGCTGCGTTGTCGCTAGGTTGTCGGAGTCACCTAGTGCAG”, the binding signal was 17200 fluorescence intensity (a.u.).

For “CCTACTCAATTGCGTCACCCGTGTATAAATCCATTCGGATCGGAGTCACCTAGTGCAG”, the binding signal is 7920 fluorescence intensity (a.u.).

Regarding “AGTGCTAGTCATCACTGTATTAGATTTAGGAATCTCTTCTCGGAGTCACCTAGTGCAG”, the binding signal was 3600 fluorescence intensity (a.u.).

Take “AAATTTGGCAGGAGTAGCAATGTATCATGTCGTAGTCTGGCGGAGTCACCTAGTGCAG”: the binding signal is 3140 fluorescence intensity (a.u.).

Take “AGCAGCAGCTGGACCACACTGCTGTGCTTGGAGCCCGGGGCGGAGTCACCTAGTGCAG”: the binding signal was 20000 fluorescence intensity (a.u.).

In the case of “GCCGCCGCCGGCAATCCATGTGCACTGATGTGCAGACATACGGAGTCACCTAGTGCAG”, the binding signal is 3380 fluorescence intensity (a.u.).

For “CAGCCGCTGAACAAAAGAGGATCAGCGAAGAGGCGCAAGGCGGAGTCACCTAGTGCAG”, the binding signal was 12300 fluorescence intensity (a.u.).
